Some entries share one result that the patent states for a list of compounds.
Target: N-type calcium channels (Homo sapiens, UniProt Q00975)
Test: Electrophysiological studies using the patch-clamp technique
Assay type: cell-based
Details: patch-clamp technique (Hamill et al.)

Chains of the proteins cited; added tags and fusions are not shown.
UniProt Q00975, whole entry: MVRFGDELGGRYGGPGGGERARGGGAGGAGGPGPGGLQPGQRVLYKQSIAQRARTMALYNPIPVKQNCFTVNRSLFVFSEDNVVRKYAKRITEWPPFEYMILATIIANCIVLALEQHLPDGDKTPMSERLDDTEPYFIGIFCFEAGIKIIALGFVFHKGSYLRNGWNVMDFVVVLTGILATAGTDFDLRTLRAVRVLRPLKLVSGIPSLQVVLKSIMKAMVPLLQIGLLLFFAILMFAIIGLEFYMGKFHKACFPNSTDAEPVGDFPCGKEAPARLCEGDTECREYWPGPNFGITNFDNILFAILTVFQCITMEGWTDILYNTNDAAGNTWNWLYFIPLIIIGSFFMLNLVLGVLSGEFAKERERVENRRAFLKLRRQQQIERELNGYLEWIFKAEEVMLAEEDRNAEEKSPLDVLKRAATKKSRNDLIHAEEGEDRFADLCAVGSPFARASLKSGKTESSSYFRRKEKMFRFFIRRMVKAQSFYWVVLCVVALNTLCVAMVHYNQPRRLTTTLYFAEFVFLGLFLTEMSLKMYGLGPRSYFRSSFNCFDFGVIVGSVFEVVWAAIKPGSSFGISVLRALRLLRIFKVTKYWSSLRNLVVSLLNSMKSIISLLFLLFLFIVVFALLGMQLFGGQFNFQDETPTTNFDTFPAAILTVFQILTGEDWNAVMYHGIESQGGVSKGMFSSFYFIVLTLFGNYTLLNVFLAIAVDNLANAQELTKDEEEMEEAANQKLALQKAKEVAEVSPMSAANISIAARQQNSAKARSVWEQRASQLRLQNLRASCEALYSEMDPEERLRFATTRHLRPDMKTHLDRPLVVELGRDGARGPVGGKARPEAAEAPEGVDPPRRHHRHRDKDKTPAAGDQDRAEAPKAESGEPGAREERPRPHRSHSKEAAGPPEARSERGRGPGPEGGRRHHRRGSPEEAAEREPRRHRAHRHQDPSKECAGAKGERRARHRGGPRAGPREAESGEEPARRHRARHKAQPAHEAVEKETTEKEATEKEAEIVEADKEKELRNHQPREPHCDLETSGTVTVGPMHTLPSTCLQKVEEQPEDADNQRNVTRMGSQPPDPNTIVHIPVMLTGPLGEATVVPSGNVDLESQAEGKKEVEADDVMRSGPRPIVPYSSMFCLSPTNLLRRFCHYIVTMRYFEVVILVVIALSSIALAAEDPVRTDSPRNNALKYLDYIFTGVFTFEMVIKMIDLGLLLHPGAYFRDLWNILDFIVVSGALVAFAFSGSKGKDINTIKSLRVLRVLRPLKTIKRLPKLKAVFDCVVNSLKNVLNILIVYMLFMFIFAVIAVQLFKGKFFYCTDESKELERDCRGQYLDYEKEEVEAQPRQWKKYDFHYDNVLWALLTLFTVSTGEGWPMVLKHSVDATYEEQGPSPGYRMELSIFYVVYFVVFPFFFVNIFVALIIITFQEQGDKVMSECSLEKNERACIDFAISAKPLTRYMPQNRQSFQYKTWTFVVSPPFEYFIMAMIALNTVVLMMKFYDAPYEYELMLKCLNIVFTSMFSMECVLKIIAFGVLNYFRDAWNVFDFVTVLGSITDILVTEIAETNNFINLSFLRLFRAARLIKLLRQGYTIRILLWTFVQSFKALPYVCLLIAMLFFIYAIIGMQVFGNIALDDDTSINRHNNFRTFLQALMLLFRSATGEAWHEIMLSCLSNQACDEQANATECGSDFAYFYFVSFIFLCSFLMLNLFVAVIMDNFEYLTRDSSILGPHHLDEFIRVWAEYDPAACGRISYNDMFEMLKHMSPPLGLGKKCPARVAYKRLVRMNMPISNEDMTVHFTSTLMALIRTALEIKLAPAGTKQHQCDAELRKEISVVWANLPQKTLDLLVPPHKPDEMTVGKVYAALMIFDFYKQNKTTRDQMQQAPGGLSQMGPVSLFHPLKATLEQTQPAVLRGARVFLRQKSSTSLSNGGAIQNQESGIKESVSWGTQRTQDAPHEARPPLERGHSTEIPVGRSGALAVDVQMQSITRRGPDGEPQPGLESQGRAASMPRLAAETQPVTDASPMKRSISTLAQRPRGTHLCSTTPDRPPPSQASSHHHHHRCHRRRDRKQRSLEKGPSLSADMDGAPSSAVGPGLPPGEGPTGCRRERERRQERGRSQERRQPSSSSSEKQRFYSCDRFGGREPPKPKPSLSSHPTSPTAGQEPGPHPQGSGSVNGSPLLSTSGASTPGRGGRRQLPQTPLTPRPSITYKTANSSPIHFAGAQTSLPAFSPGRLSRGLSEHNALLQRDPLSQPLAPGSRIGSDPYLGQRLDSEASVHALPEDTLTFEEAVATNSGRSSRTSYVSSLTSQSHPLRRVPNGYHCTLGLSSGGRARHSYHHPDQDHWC

Structure (SMILES) | concentrations at which the N-type calcium channels are blocked [µM]
COc1ccc(-c2ccccc2)cc1-n1c(N)nc2cc(C(F)(F)F)ccc21 [1-(2-methoxy-5-phenyl-phenyl)-2-amino-5-trifluoromethyl-benzimidazole] | 0.5 to 10
Nc1nc2cc(C(F)(F)F)ccc2n1-c1cc(-c2ccccc2)ccc1O [1-(2-hydroxy-5-phenyl-phenyl)-2-amino-5-trifluoromethyl-benzimidazole] | 0.5 to 10

Source: patent EP0520200B1, “Imidazole compounds, their preparation and use” (NEUROSEARCH A/S, priority 1991, dated 1992)
